Some results were stated once for a whole list of compounds, not compound by compound.
Molecular target: T1, PSA detection antibody-HRP conjugate (Armoracia rusticana, UniProt P00433)
T1 construct: PSA detection antibody (conjugated)
T1 sequence (P00433 31-338 limits assumed): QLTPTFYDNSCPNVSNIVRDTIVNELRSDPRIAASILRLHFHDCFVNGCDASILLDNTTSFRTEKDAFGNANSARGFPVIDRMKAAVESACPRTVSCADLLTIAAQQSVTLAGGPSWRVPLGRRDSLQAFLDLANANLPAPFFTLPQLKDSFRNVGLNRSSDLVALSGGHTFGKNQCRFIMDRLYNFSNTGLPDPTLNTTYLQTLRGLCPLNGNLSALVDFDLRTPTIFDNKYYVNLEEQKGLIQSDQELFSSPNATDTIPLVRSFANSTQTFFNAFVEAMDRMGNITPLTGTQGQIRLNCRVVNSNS
Experiment: Quantification of PSA using PSA detection antibody-HRP conjugate and OD4MI CL detection (CLEIA) in the presence of catalyst
Assay type: biochemical
Conditions: FIG. 2
Procedure: AccuLite® CLIA kit capable of quantifying PSA with luminol CL detection was used to develop new CLEIA method using ODI derivative CL detection. The kit is composed of 96 strip wells coated with monoclonal PSA primary antibody, PSA detection antibody-HRP conjugate, luminol as a substrate, reaction buffer, and washing buffer.
8 different PSA serum samples (0, 0.5, 1, 2, 5, 10, 25, 50 ng/ml), components of AccuLite® CLIA kit, were used as standard samples.
2.0 μM Amplex® Red reagent and 0.2 mM H2O2 in deionized water were prepared as described in Example 1 (A).
0.5 mM 4-Iodophenol was prepared in Tris-HCl buffer solution (pH 8.5).
2.0 mM 4-(1,2,4-triazol-1-yl) phenol was prepared in Tris-HCl buffer solution (pH 8.5).
0.8 ml of aqueous solution containing Amplex® Red reagent (2.0 μM) and H2O2 (0.2 mM) was mixed with 0.2 ml of 4-Iodophenol (or 2.0 mM 4-(1,2,4-triazol-1-yl) phenol).
OD4MI was formed from the reaction between 5.0 μM TCPO and 10.0 μM 4-Methylimidazole (4MImH) in Ethyl acetate. 100 mM H2O2 was prepared in Isopropyl alcohol.
• 12. Pipette 25 μl of PSA standard or test sample into a strip well. • 13. Add 100 μl of PSA detection antibody-HRP conjugate to the strip well • 14. Swirl the strip wells for 20 seconds. • 15. […] Read (integration time: 0.5 seconds) emitted CL for 0.5 seconds when OD4MI and H2O2 are added into the test tube or strip well through two dispensers.

Oc1ccc(-n2cncn2)cc1 [4-(1,2,4-triazol-1-yl) phenol]
dynamic range of PSA calibration: 0˜50 ng/ml
